# Measurements taken from article PMC10163288.
# Some of the results follow.
# B1: il10ra_site1_sap_22_mot_HHH_b2_06321_af2_000000133_0001_42_55_H_._HHH_b1_02534_af2_0001_0000800018_0000002_0_0001 (protein)
# chain: SSSSDEETQRAMELVERASEADQRGDEEEVRELLEEALELAEEGNNWALQFAIRMILERLNSSSS
# B2: il10ra_site1_sap_22_mot_HHH_b2_08186_000000021_0001_43_56_H_._HHH_b2_02553_0001_0000400018_0000001_0_0001 (protein)
# chain: SSSSSDLEEAVEELLEEARHIEDPDERYKVLEEAIEVAHEAGDPELARLIMEFLREMVQGSSSSS
# B3: il10ra_site1_normal_mot_HHH_b1_04065_000000255_0001_41_56_H_._HHH_b2_01603_0001_0000200013_0000001_0_af2pred_0001 (protein)
# chain: SSSSSNDEEAAHIFIEALRLAHELGDEETFREVIQLAVKYFREGDPRYLEEVEELLEELRSSSSS
# B4: il10ra_site1_sap_19_mot_HHH_b2_07521_000000141_0001_20_37_H_._HHH_b2_07882_0001_0000300023_0000001_0_0001 (protein)
# chain: SSSSSDVEEYVRQAARFIRALLEAGNPEAARSLLRALEDIAKKHNDEEAEEIVKELEELLSSSSS
# B5: il10ra_site1_normal_mot_HHH_b1_05865_af2_000000211_0001_1_17_H_._HHH_b2_08125_0001_0000300030_0000001_0 (protein)
# chain: SSSSSSDIEEEVEELLERAERVSEEEAFELLVEALRLAFKAGNDELLKEIWEFYKRLRSSSSSSS
# B6: il10ra_site1_sap_11_mot_HHH_b1_05860_000000142_0001_1_19_H_._HHH_b2_01378_0001_0000400028_0000002_0_0001 (protein)
# chain: SSSSSEEEELVRAAREIARQAYENGNPEEARYLLEALLENLEKEGNEELVEEVRELLEELSSSSS
# B7: il10ra_site1_normal_mot_HEEHE_1605_000000211_0001_40_56_H_._544ef0e38e907b7890d4414ebae48784_0001_1_0001_0000100003_0000001_0_af2pred_dldesign_0_af2pred (protein)
# chain: SKEELLERLAELLGLAPETVKYALEQLTAQTGDPDAAIDAFLAGLELSGRLTPEVAALLARLREE
# B8: il10ra_site1_sap_19_mot_HHH_b1_05214_000000232_0001_38_57_H_._HHH_b2_00758_0001_0000400024_0000001_0_0001 (protein)
# chain: SSSSDIRELYELSREAVELRHEGNPEEAEKVVEEAEELARELNNRVLLAVIEWLREAIETSSSSS
# B9: il10ra_site1_normal_mot_HHH_b2_03220_af2_000000223_0001_23_40_H_._HHH_b2_04195_af2_0001_0000100007_0000001_0 (protein)
# chain: SSSSTEREEVWELLRRALELLANGNPEEAEKLLEEARRIAEELNSELFEFAIRLLERDVEISSSS
# B10: il10ra_site1_normal_mot_HHH_b2_00277_af2_000000172_0001_1_17_H_._HHH_b2_05985_0001_0000200017_0000002_0_af2pred_0001 (protein)
# chain: SSSSDEERLEELLRILEELVKKNDEEEFKEVYKEAAEIAAKLRDLEASHKLTELFALLTNSSSSS
# B11: il10ra_site1_normal_mot_HHH_b1_04065_000000255_0001_41_56_H_._HHH_b2_04118_0001_0000500025_0000001_0 (protein)
# chain: SSSSSSEEEERVEELLEEAKHIEDPKERSHVLLRASRIAYELRDQELLRLIDKVAIELYSSSSSS
# B12: il10ra_site1_sap_16_mot_HHH_b2_05401_af2_000000143_0001_1_14_H_._7b9e6e68400ffa30f527534e580da0a7_0001_1_af2_0001_0000100003_0000001_0_0001 (protein)
# chain: SSSSDEEKRVAELLHQAMEAYKNKDEERLEELLEEIRRLAEELNNPLLEWLVRLLEEALKNSSSS
# B13: il10ra_site1_normal_mot_HHH_b1_00682_000000211_0001_1_20_H_._HHH_b1_08465_0001_0000200010_0000001_0_af2pred_0001 (protein)
# chain: SSSSDLEERVEELLERAEELYEKGNPEEAVRLIREAIELVSKNNNDELIELVREVSRRLSDSSSS
# B14: il10ra_site1_normal_mot_7d538683ae38ff56261eb02f12605454_0001_af2_000000062_0001_54_65_H_._HHH_b1_03177_0001_0000200008_0000001_0 (protein)
# chain: SSSSDSQVIVEAAKLALRWAYEAGDPEHLEAILRIYREALKDAGDPEALEELEEFYEELESSSSS
# B15: il10ra_site1_normal_mot_HHH_b1_02062_000000185_0001_1_20_H_._HHH_b1_04860_0001_0000300024_0000001_0_af2pred_0001 (protein)
# chain: SSSSDELERVQELSREAAELLRKGDPEEAREVLEEARELAEELNNPVLRLIIEYLLKLIHSSSSS
# B16: il10ra_site1_normal_mot_HHH_b2_04275_000000272_0001_20_36_H_._HHH_b2_04520_0001_0000100005_0000001_1 (protein)
# chain: SSSSDETQELYKLLREIVELIHEGDDEEARRLLEEARELAEELGNDIVRAQLEFLERHLESSSSS
# B17: il10ra_site1_sap_23_mot_HHH_b1_03531_000000273_0001_41_54_H_._HHH_b2_03953_0001_0000200015_0000001_0_0001 (protein)
# chain: SSSSSSEEEERVEELEEEFHRVDSQEQYKIIKEIIELASESNDPRLFRVAHRLVRAFARSSSSSS
# B18: il10ra_site1_sap_11_mot_HHH_b1_07768_000000240_0001_18_35_H_._HHH_b1_01268_0001_0000200021_0000002_0_0001_af2pred_0001 (protein)
# chain: SSSSSDEEVRERIEELLEEAEQISDEEEAVQVLFEALRLADELGDEEIFRAVIEVAIRLHSSSSS
# B19: il10ra_site1_sap_13_mot_9c3e5e2d2b9ffb70dc788f52fbfab6d5_0001_1_000000198_0001_1_14_H_._HHH_b1_03259_0001_0000500036_0000001_0_0001 (protein)
# chain: SSSSDEELRELVREVLELMFRGNPEEAEELAEQLLELAEELGDPLAEAIRMLLEIIRRSKSSSSS
# Molecular target: il10ra, Q13651
# Test: yeast display titration
row,Binder,apparent Kd
1,B1,inactive: no binding seen
2,B2,inactive: no binding seen
3,B3,inactive: no binding seen
4,B4,inactive: no binding seen
5,B5,inactive: no binding seen
6,B6,inactive: no binding seen
7,B7,inactive: no binding seen
8,B8,inactive: no binding seen
9,B9,inactive: no binding seen
10,B10,inactive: no binding seen
11,B11,inactive: no binding seen
12,B12,inactive: no binding seen
13,B13,inactive: no binding seen
14,B14,inactive: no binding seen
15,B15,inactive: no binding seen
16,B16,inactive: no binding seen
17,B17,inactive: no binding seen
18,B18,inactive: no binding seen
19,B19,inactive: no binding seen

# A different layout for some results above.
row	Binder	apparent Kd
7	B7	inactive: no binding seen
8	B8	inactive: no binding seen
